From paper doi:10.1101/817213
Results are given in words; binding and its absence hold for the method and conditions named. Binding seen in cells or lysates may run through a third protein. Binding calls can cover weak binding; strength is not graded here. Sequences can lack the tags named with a protein.

Biological target: 3xHA-TOGARAM1 (human)
Assay: co-IP

B1: mouse ARMC9-3xFlag (protein, UniProt Q9D2I5 1-817)
chain: MGDILAHESELLGLVKEYLDFAEFEDTLKTFSKECKVKGKPLCKNVGGPLKKDSKSLVIQRDLVAAFDSGDQKAFFDLWEGHIPSSVRDTDSLAQKLEFYLHIHFAIYLLKYCRGRPDKQELDKRISYFKTYLETKGAALSQTTEFLPFYALPFVPNPMVHPSFKELFQDSWTPELKLKLEKFLALTFKANNTPKLLTIYKENGPNSKELLQQLHQQLVEAERRAMTYLKRYNKIQADYHNLIGVTAELVDSLEATVSGKMITPEYLQSVCVRLFSNQMRQSLAHSVDFTRPGTASTMLRASLAPEKLKDVPLLPSLDYEKLKKDLIWGSDRLKAFLLQALRWRLTTSHPGEQRETVLQAYISNDLLDCHSHNQRSVLQLLHSKSEAVRQYMARLINALASLAEGRLYLAQNTKVLRMLEGRLKEEDKDVITRENVLGALQKFSLRRPLQTAMIRDGLIFWLIDLLKDPDCLSDYTLEYSVALLMNLCLRSAGKNMCAKVAGLMLKVLSDLLGHENHEIQPYVNGALYSILSIPSIREEARAMGMEDILRCFIKEGNAEMIRQIEFIIKQLNSEDLLDGVLESDDDEDEDDEEDHDIMEADLDKDELIQPQLGELSGEKLLTTEYLGIMTNTGKARRKGPASVQWSGDEPLRRPVTPGGHRTGCPVLGDHLISPQNAQQARNGCLRAMPVAHPDDYKEGKPGVTGCGTSSSFMDHKPREWSPAGHQKSRLVPTAALGWPREMTQDPSSGHITREFVPAFTCKPQVPSTPETVEQNPLKAKALSLAPQFSSSGPQQASRPASTASSTRGLHSSQSIRK
binding: binds
